Results taken from the supplement of paper PMC10849652.
This is one part of the list.

By UniProt entry, the sequences of proteins in these tests, tags left out. Where a name states a change or a piece, a line headed by the entry shows the natural chain unless it says otherwise.
UniProt O43639, whole entry, looked up: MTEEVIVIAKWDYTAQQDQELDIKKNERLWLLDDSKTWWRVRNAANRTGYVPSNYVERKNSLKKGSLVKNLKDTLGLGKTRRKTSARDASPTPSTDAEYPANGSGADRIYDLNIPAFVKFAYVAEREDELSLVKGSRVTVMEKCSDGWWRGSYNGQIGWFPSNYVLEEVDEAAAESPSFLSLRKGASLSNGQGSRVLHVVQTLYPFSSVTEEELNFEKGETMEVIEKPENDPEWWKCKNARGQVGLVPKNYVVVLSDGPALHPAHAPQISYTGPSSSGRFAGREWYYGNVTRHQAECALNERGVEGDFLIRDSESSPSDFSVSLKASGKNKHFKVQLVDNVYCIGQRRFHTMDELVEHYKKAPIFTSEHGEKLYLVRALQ
UniProt Q969H8: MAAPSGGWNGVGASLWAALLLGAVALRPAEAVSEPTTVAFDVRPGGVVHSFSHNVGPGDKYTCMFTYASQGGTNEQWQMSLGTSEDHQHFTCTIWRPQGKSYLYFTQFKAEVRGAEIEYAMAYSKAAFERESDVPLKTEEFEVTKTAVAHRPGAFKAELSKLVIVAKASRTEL
UniProt Q96H55, whole entry, looked up: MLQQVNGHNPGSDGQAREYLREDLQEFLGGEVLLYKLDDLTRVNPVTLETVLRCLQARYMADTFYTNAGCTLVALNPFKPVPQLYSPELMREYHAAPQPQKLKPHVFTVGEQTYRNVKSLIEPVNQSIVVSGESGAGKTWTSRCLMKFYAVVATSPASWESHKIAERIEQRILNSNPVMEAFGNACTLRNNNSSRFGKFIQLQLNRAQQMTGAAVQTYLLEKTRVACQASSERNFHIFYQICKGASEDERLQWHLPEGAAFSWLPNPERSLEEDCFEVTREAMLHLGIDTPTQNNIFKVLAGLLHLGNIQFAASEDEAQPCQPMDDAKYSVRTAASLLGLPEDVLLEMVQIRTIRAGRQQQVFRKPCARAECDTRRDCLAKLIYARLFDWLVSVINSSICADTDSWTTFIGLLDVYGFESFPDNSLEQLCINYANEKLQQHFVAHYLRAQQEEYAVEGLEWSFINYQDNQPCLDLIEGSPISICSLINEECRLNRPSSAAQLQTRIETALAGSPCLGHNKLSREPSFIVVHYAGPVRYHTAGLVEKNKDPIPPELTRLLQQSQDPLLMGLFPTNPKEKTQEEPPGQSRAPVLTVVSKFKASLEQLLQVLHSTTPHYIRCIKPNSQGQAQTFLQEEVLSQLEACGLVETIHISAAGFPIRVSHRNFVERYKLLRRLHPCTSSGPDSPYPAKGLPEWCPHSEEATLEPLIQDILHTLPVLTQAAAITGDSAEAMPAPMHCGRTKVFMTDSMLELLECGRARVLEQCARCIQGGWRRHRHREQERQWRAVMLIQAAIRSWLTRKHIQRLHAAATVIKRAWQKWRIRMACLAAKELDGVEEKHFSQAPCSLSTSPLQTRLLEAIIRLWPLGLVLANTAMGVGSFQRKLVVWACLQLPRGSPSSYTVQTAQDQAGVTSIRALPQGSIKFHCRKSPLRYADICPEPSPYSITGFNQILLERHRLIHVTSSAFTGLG
UniProt Q96RE7: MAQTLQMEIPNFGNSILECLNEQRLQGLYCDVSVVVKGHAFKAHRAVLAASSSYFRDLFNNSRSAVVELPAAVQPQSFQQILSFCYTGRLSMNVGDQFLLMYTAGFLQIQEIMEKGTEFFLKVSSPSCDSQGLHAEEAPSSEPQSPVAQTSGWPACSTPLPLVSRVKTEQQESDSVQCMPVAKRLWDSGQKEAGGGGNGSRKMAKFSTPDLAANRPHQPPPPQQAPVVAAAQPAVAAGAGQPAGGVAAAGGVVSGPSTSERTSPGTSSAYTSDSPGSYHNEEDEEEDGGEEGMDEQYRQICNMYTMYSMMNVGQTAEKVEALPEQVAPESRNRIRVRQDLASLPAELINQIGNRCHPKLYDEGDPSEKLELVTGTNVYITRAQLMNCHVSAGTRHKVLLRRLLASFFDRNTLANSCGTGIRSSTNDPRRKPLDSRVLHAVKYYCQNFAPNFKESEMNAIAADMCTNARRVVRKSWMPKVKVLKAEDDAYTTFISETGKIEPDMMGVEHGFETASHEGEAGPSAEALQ
UniProt Q9Y2A7: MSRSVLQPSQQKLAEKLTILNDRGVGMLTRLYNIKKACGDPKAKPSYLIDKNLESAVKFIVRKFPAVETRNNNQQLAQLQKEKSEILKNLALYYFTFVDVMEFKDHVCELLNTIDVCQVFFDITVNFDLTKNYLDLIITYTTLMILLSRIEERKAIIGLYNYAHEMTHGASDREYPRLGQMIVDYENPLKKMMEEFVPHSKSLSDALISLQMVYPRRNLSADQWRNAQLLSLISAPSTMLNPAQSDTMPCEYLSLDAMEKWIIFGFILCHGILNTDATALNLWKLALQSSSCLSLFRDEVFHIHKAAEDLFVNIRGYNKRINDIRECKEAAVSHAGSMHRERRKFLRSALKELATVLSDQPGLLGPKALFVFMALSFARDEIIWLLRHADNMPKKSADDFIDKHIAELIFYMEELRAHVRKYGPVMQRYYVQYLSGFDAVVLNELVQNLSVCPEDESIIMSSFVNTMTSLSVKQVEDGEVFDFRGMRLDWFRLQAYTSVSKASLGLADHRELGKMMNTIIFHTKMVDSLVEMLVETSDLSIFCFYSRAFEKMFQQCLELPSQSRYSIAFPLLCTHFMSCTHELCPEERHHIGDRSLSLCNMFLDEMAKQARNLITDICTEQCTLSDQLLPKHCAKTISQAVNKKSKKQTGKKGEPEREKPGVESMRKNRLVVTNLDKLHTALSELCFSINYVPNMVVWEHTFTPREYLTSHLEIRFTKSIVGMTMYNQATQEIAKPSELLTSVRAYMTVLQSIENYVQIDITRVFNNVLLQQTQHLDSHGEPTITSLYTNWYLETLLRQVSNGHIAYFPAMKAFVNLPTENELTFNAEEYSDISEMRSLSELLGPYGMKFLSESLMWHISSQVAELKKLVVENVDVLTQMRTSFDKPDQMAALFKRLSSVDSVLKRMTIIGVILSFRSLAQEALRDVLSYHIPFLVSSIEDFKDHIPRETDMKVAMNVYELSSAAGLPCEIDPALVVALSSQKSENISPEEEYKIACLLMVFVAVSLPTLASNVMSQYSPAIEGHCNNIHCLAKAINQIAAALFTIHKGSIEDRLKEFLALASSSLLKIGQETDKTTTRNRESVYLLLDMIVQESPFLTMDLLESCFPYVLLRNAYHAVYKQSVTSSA
UniProt Q8TBE9: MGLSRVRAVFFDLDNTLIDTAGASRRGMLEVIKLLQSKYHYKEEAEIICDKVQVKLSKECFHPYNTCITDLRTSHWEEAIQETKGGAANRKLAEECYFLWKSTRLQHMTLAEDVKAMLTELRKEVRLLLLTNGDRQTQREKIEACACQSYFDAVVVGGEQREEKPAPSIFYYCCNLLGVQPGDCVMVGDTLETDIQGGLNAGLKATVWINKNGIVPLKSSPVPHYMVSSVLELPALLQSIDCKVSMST
UniProt Q15021, whole entry, looked up: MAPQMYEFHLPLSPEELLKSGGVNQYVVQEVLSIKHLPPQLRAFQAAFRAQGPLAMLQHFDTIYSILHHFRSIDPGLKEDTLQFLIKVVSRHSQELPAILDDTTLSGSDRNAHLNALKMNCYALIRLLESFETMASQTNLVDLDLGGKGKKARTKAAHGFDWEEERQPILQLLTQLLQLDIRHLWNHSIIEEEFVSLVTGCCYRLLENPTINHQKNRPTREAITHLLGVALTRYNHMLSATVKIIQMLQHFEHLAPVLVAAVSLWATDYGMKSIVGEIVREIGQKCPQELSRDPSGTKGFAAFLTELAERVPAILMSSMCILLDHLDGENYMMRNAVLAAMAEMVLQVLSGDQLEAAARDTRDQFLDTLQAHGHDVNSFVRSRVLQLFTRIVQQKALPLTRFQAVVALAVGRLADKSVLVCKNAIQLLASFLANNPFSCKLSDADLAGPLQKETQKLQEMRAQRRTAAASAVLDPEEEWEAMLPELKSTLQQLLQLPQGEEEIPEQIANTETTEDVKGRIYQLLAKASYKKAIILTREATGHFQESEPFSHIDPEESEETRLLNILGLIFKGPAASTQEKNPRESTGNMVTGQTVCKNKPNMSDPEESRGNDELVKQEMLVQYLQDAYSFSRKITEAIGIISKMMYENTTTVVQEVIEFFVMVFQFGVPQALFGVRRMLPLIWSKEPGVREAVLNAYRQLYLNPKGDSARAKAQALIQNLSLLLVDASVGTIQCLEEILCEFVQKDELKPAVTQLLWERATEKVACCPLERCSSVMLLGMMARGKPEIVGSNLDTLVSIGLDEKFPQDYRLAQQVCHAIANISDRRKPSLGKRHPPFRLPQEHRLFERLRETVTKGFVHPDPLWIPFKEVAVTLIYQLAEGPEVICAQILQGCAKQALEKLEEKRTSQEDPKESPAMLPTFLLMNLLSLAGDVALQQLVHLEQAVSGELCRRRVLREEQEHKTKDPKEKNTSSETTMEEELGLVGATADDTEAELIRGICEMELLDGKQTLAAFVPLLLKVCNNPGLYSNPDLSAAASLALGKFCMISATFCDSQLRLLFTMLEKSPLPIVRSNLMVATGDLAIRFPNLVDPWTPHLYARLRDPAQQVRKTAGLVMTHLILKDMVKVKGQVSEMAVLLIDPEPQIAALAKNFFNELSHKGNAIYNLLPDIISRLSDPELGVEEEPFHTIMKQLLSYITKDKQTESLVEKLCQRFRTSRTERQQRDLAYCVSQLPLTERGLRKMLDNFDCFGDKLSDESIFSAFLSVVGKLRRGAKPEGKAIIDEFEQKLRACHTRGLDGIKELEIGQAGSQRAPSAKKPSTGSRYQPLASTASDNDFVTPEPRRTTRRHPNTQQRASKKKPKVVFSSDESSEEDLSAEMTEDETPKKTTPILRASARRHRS
UniProt P60660, whole entry, looked up: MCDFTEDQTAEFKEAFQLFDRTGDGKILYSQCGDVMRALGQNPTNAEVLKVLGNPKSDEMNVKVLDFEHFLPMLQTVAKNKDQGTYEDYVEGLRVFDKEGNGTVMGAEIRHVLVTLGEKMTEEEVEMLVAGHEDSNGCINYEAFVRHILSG
UniProt P43490: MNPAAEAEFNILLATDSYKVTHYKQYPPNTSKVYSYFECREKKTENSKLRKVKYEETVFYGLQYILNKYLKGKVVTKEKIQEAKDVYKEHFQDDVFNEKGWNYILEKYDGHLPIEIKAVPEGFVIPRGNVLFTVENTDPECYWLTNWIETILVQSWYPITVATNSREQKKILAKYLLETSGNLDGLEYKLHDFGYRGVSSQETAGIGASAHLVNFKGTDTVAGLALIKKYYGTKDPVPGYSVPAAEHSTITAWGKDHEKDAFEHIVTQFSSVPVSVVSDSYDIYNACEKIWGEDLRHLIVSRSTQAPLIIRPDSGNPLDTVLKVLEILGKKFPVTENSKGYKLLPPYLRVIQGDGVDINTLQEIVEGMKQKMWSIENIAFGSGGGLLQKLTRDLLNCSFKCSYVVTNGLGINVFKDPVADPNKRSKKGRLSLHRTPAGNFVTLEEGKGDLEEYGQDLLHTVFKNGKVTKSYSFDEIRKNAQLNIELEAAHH
UniProt O75113: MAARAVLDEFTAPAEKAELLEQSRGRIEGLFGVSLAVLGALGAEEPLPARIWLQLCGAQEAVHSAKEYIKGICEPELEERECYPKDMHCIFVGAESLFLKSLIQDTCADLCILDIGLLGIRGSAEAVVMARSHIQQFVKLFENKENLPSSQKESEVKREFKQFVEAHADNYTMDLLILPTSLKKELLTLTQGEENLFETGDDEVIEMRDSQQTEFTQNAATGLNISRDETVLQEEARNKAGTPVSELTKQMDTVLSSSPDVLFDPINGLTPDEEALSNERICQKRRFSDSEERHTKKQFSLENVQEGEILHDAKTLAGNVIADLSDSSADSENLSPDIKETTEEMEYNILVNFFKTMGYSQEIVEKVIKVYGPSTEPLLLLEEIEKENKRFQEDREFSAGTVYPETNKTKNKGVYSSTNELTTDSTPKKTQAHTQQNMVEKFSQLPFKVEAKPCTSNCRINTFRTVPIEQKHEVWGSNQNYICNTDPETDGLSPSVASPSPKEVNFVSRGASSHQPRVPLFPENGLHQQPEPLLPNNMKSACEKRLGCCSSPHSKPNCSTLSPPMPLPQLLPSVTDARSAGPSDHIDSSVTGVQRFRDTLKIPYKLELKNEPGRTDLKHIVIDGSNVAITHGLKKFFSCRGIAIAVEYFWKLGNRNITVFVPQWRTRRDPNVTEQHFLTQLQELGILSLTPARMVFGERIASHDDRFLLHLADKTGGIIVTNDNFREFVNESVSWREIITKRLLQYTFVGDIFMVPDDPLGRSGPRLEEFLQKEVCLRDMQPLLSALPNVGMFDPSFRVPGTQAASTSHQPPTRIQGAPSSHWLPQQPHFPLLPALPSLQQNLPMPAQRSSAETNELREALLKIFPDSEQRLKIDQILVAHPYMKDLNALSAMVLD
UniProt P14649: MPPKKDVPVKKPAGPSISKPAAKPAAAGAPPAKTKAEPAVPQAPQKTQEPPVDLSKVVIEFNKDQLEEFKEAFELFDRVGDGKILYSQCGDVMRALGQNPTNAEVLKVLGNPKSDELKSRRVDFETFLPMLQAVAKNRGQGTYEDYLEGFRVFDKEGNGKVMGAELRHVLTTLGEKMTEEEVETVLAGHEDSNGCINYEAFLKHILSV

Tests used:
Assay in all cases: log2 fold change, soluble protein after heating vs DMSO (PISA); higher = thermal stabilisation; K562 lysate, 10 uM; active = over 0.2 and 3.5 SD of the protein, either way, in both replicates (recomputed)
[1] = compound: C1=CC=C(C=C1)[C@H](COC2=CC3=C(C=C2)NC(=O)N3)NC(=O)C4=CC=CN(C4=O)CC5=CC(=C(C=C5)F)F
Method in brief: (§1)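 Pellets of K562 cells were dounce-homogenised in PBS pH 7.4 with 1 mM MgCl2, and the crude extract was held at 1 mg/mL protein for a 30 min treatment with 10 μM compound. Aliquots were heated for 3 min over 48°C-58°C and pooled before NP-40 was added to 0.5% at 4°C. The supernatant from 21,000xg for 90 min was quantified by TMTpro 16plex LC-MS/MS with channel sums equalised. Values are reported from duplicates as log-two fold change in thermal stability relative to solvent controls.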

[2] = compound: CC1=C(SC2=C1C(=N[C@H](C3=NN=C(N32)C)CC(=O)N)C4=CC=C(C=C4)Cl)C
Method in brief: as §1

[3] = compound: CC1=C2C(=CC=C1)N=C(N(C2=O)C3=CC=CC=C3C)CN4C=NC5=C(N=CN=C54)N
Method in brief: as §1

[4] = compound: Cc1sc2c(c1C)C(c1ccc(Cl)cc1)=N[C@@H](CC(=O)OC(C)(C)C)c1nnc(C)n1-2
Method in brief: as §1

[5] = compound: c1ccc([C@@H]2C[C@H]2NC2CCNCC2)cc1
Method in brief: as §1

Measured: log2 fold change

NAXD (UniProt Q8IW45)
inactive: [1] 0.052 | [2] 0.009 | [3] -0.014 | [4] 0.038 | [5] 0

NCOA5 (UniProt Q9HCD5)
inactive: [1] 0.113 | [2] 0.113 | [3] 0.012 | [4] 0.087 | [5] -0.017

NCK2 (UniProt O43639)
inactive: [1] -0.083 | [2] -0.086 | [3] -0.014 | [4] 0.039 | [5] -0.067

MYDGF (UniProt Q969H8)
inactive: [1] 0.06 | [2] 0.022 | [3] 0.007 | [4] -0.014 | [5] -0.034

NCL (UniProt P19338)
inactive: [1] -0.002 | [2] 0.002 | [3] -0.004 | [4] 0 | [5] -0.004

NCKAP1L (UniProt P55160)
inactive: [1] -0.002 | [2] 0.021 | [3] -0.106 | [4] -0.061 | [5] 0.005

MYO19 (UniProt Q96H55)
inactive: [1] -0.117 | [2] 0.128 | [3] 0.003 | [4] 0.008 | [5] 0.13

NDC1 (UniProt Q9BTX1)
inactive: [1] 0.001 | [2] -0.055 | [3] 0.003 | [4] 0.02 | [5] -0.172

NCOA3 (UniProt Q9Y6Q9)
inactive: [1] -0.038 | [2] 0.007 | [3] 0.009 | [4] 0.004 | [5] 0.013

NCK1 (UniProt P16333)
inactive: [1] 0.018 | [2] 0 | [3] 0.022 | [4] 0.003 | [5] 0.049

N4BP3 (UniProt O15049)
inactive: [1] -0.02 | [2] -0.003

MXRA8 isoform 2 (UniProt Q9BRK3)
inactive: [1] 0.06 | [2] -0.046

NACC1 (UniProt Q96RE7)
inactive: [1] 0.013 | [2] -0.004 | [3] 0.027 | [4] 0.013 | [5] 0.033

NCBP1 (UniProt Q09161)
inactive: [1] 0.003 | [2] -0.01 | [3] -0.003 | [4] -0.012 | [5] 0.011

NAV1 (UniProt Q8NEY1)
inactive: [1] 0.072 | [2] 0.057 | [3] 0.041 | [4] 0.057 | [5] 0.064

NARS1 (UniProt O43776)
inactive: [1] 0.005 | [2] 0.002 | [3] 0.016 | [4] 0.018 | [5] 0.022

NBDY, A0A0U1RRE5
inactive: [1] 0.124 | [2] -0.06 | [3] -0.023 | [4] 0.102 | [5] 0.099

NCKAP1 isoform 2 (UniProt Q9Y2A7)
inactive: [1] -0.015 | [2] 0.003 | [3] 0.006 | [4] 0.015 | [5] 0.018

NARF (UniProt Q9UHQ1)
inactive: [1] -0.023 | [2] -0.005 | [3] 0.017 | [4] -0.019 | [5] 0

NAP1L5 (UniProt Q96NT1)
inactive: [1] 0.082 | [2] -0.023 | [3] -0.028 | [4] -0.082 | [5] 0.304

NANP (UniProt Q8TBE9)
inactive: [1] -0.003 | [2] 0.03 | [3] -0.052 | [4] -0.068 | [5] -0.028

MYH11 isoform 2 (UniProt P35749)
inactive: [1] 0.037 | [2] -0.021 | [3] 0.004 | [4] -0.065 | [5] 0.025

NBN (UniProt O60934)
inactive: [1] 0.074 | [2] 0.046 | [3] 0.003 | [4] -0.011 | [5] 0.059

NAA30 (UniProt Q147X3)
inactive: [1] 0 | [2] 0.018 | [3] 0.033 | [4] 0.02 | [5] -0.013

NABP2 (UniProt Q9BQ15)
inactive: [1] 0.007 | [2] -0.121 | [3] 0.031 | [4] 0.059 | [5] -0.017

MYO9A isoform 4 (UniProt B2RTY4)
inactive: [1] -0.124 | [2] -0.047 | [3] 0.094 | [4] -0.027 | [5] -0.02

NCBP2AS2 (UniProt Q69YL0)
inactive: [1] -0.167 | [2] 0.016 | [3] 0.022 | [4] 0.057 | [5] 0.005

NAP1L1 isoform 3 (UniProt P55209)
inactive: [1] -0.107 | [2] 0.099 | [3] 0.082 | [4] -0.124 | [5] -0.187

NCDN isoform 3 (UniProt Q9UBB6)
inactive: [1] -0.029 | [2] 0.03 | [3] 0.029 | [4] 0.003 | [5] 0.018

NCEH1 (UniProt Q6PIU2)
inactive: [1] 0.077 | [2] 0.01 | [3] -0.081 | [4] -0.044 | [5] 0.015

NCOA7 (UniProt Q8NI08)
inactive: [1] 0.028 | [2] -0.016 | [3] 0.016 | [4] 0.013 | [5] -0.005

NANS (UniProt Q9NR45)
inactive: [1] 0.001 | [2] 0.04 | [3] -0.025 | [4] 0.04 | [5] 0.016

NAAA (UniProt Q02083)
inactive: [1] 0.068 | [2] -0.181 | [3] -0.003 | [4] 0.007 | [5] -0.138

NAA15 (UniProt Q9BXJ9)
inactive: [1] -0.003 | [2] -0.002 | [3] 0.009 | [4] 0.013 | [5] 0.017

N4BP2 (UniProt Q86UW6)
inactive: [1] 0.024 | [2] 0.04 | [3] 0.064 | [4] -0.022 | [5] -0.068

NCAPD2 (UniProt Q15021)
inactive: [1] -0.023 | [2] 0.028 | [3] 0.026 | [4] 0.008 | [5] 0.022

MYL12B (UniProt O14950)
inactive: [1] 0.021 | [2] -0.011 | [3] 0.025 | [4] 0.016 | [5] 0.052

MYCBP2 (UniProt O75592)
inactive: [1] -0.006 | [2] -0.003 | [3] 0.017 | [4] 0.005 | [5] -0.005

NCLN (UniProt Q969V3)
inactive: [1] -0.022 | [2] 0.001 | [3] 0.043 | [4] -0.014 | [5] 0.011

MYL6 (UniProt P60660)
inactive: [1] -0.041 | [2] -0.066 | [3] 0.001 | [4] -0.003 | [5] 0.016

NAMPT (UniProt P43490)
inactive: [1] 0.013 | [2] 0.009 | [3] -0.033 | [4] 0.003 | [5] 0.003

NCR3LG1 (UniProt Q68D85)
inactive: [1] -0.024 | [2] -0.014 | [3] 0.001 | [4] -0.041 | [5] -0.049

N4BP1 (UniProt O75113)
inactive: [1] 0.007 | [2] -0.033 | [3] -0.05 | [4] 0.01 | [5] 0.031

MYH14 isoform 2 (UniProt Q7Z406)
inactive: [1] 0.072 | [2] -0.031 | [3] 0.021 | [4] -0.024 | [5] -0.068

MUL1 (UniProt Q969V5)
inactive: [1] -0.029 | [2] 0.014 | [3] -0.01 | [4] 0.015 | [5] 0.064

MYADM (UniProt Q96S97)
inactive: [1] -0.06 | [2] 0.017 | [3] 0.032 | [4] -0.015 | [5] -0.015

MYL6B (UniProt P14649)
inactive: [1] -0.009 | [2] -0.028 | [3] -0.001 | [4] 0.012 | [5] -0.019

MYCBP (UniProt Q99417)
inactive: [1] 0.043 | [2] -0.087 | [3] -0.013 | [4] -0.022 | [5] -0.27

N6AMT1 (UniProt Q9Y5N5)
inactive: [1] -0.046 | [2] -0.086 | [3] -0.046 | [4] -0.011 | [5] 0.052

NCS1 (UniProt P62166)
inactive: [1] 0.109 | [2] -0.035 | [3] -0.035 | [4] -0.005 | [5] -0.054

NBEAL2 (UniProt Q6ZNJ1)
inactive: [1] -0.047 | [2] 0.055 | [3] 0.015 | [4] -0.029 | [5] 0.044

NAT1 (UniProt P18440)
inactive: [1] 0.049 | [2] -0.021 | [3] 0.012 | [4] 0.015 | [5] 0.011

NCOA4 isoform 4 (UniProt Q13772)
inactive: [1] -0.002 | [2] 0.043 | [3] 0.03 | [4] -0.001 | [5] -0.059

NASP (UniProt P49321)
inactive: [1] 0.027 | [2] -0.003 | [3] -0.009 | [4] 0.003 | [5] 0.011
